{"source": "patent US9889181B2", "about": "“Bacteriophage lysin and antibiotic combinations against gram positive bacteria” (priority 2012, dated 2018)", "molecules": {"B1": {"name": "PlySs2: bacteriophage lysin derived from Streptococcus suis, amino acid sequence of FIG. 29 (SEQ ID NO: 1) (protein, listed as Streptococcus suis)", "chain": "MTTVNEALNNVRAQVGSGVSVGNGECYALASWYERMISPDATVGLGAGVGWVSGAIGDTISAKNIGSSYNWQANGWTVSTSGPFKAGQIVTLGATPGNPYGHVVIVEAVDGDRLTILEQNYGGKRYPVRNYYSAASYRQQVVHYITPPGTVAQSAPNLAGSRSYRETGTMTVTVDALNVRRAPNTSGEIVAVYKRGESFDYDTVIIDVNGYVWVSYIGGSGKRNYVATGATKDGKRFGNAWGTFK"}}, "tested_on": "MRSA strains", "assay": "Time kill assay, PlySs2 and antibiotic alone or in combination", "assay_type": "cell-based, Staphylococcus aureus", "conditions": "MRSA strain 650, 1×10^9 starting inoculum; PlySs2 16 μg/ml, daptomycin 1 μg/ml", "note": "Some results were stated once for a whole list of compounds, not compound by compound.", "data": [{"molecule": "B1", "values": [{"measurement": "log kill, single agent alone", "value": "4-5 log"}]}]}
